Source: patent US20250057968A1, “ANTI-DLL3 ANTIBODY AND PHARMACEUTICAL USE THEREOF, AND ANTIBODY-DRUG CONJUGATE CONTAINING ANTI-DLL3 ANTIBODY” (Jiangsu Hengrui Pharmaceuticals Co., Ltd., priority 2021, published 2025)
Results are given in words; binding and its absence hold for the method and conditions named. A result given as binding can be weak or reduced; the word gives no strength.

Biological target: monkey DLL3 protein (hybridoma screening ELISA) (monkey)
Experiment: ELISA, hybridoma supernatant

binding: binds
B1: mAb100 (antibody, V domains shown)
VH: EVQLVESGGGLVKPGGSLKLSCAASGFTFSDSGMHWIRQAPEKGLEWVAYISSGSSTIHYADTVKGRFTISRDNAKNTLFLQMTSLRSEDTAMYYCASPLYYYGRSYNAVAYWGQGTSVTVSS
VL: DIQMNQSPSSLSASLGDTITITCHASQNINVWLSWYQQKPGNIPKLLIYKASDLHTGVPSRFSGSGSGTGFTLTISSLQPEDIATYYCQQGQSYPLTFGGGTKLEIK
